Source: patent US20070060566A1, “Benzazepine derivatives as histamine h3 antagonists” (priority 2003, published 2007)
Some entries share one result that the patent states for a list of compounds. For at least one compound, name, drawing or mass did not settle the structure.

Chains of the proteins cited; added tags and fusions are not shown. Lines headed by an entry give the natural chain unless they say otherwise; changes in a name come on top.
UniProt Q9Y5N1: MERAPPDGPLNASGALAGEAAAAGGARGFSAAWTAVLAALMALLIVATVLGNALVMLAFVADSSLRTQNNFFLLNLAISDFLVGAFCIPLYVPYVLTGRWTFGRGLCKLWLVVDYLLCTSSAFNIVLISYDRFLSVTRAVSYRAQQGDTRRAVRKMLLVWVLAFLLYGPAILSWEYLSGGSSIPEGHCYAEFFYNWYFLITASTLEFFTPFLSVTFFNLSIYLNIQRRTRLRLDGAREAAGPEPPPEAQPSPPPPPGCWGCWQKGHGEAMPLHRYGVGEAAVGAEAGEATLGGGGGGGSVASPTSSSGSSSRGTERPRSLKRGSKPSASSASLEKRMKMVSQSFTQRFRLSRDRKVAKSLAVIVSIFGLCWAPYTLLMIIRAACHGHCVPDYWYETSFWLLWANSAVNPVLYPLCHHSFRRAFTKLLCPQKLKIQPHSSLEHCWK

Biological target: T1, human histamine H3 receptor (Homo sapiens, UniProt Q9Y5N1)
T1 construct: expressed in transfected cells; host or cells: CHO K1 cells carrying the pSwitch regulatory plasmid, transfected with pGeneH3, induced with mifepristone; clone 3H3
Test: Histamine H3 functional antagonist assay ([35S]GTPγS SPA on membranes)
Assay type: biochemical
Conditions: membranes of CHO K1 cells expressing human histamine H3; histamine 0.3 μM

Antagonism (pKb), > 6.5 pKb:
COc1ccc2cc(C(=O)Nc3ccc4c(c3)CCN(C3CCC3)CC4)ccc2c1.O=C(O)C(F)(F)F [Example 238, N-(3-Cyclobutyl-2,3,4,5-tetrahydro-1H-3-benzazepin-7-yl)-6-(methyloxy)-2-naphthalenecarboxamide trifluoroacetate]
Cn1cc(C(=O)Nc2ccc3c(c2)CCN(C2CCC2)CC3)c(C(F)(F)F)n1.O=C(O)C(F)(F)F [Example 216, N-(3-Cyclobutyl-2,3,4,5-tetrahydro-1H-3-benzazepin-7-yl)-1-methyl-3-(trifluoromethyl)-1H-pyrazole-4-carboxamide trifluoroacetate]
COc1ccc(-n2ncc(C(=O)Nc3ccc4c(c3)CCN(C3CCC3)CC4)c2C)cc1.O=C(O)C(F)(F)F [Example 182, N-(3-Cyclobutyl-2,3,4,5-tetrahydro-1H-3-benzazepin-7-yl)-5-methyl-1-[4-(methyloxy)phenyl]-1H-pyrazole-4-carboxamide trifluoroacetate]
COc1ccccc1NC(=O)Nc1ccc2c(c1)CCN(C1CCC1)CC2 [Example 134, N-(3-Cyclobutyl-2,3,4,5-tetrahydro-1H-3-benzazepin-7-yl)-N′-[2-(methyloxy)phenyl]urea]
Cc1cccc(C(=O)Nc2ccc3c(c2)CCN(C2CCC2)CC3)c1 [Example 21, N-(3-Cyclobutyl-2,3,4,5-tetrahydro-1H-3-benzazepin-7-yl)-3-methylbenzamide]
O=C(Nc1ccc2c(c1)CCN(C1CCC1)CC2)c1cccnc1 [Example 38, N-(3-Cyclobutyl-2,3,4,5-tetrahydro-1H-3-benzazepin-7-yl)nicotinamide]
Cc1c(C(=O)Nc2ccc3c(c2)CCN(C2CCC2)CC3)cnn1-c1ccc(Cl)cc1.Cl [Example 276, 1-(4-Chlorophenyl)-N-(3-cyclobutyl-2,3,4,5-tetrahydro-1H-3-benzazepin-7-yl)-5-methyl-1H-pyrazole-4-carboxamide hydrochloride]
O=C(Nc1ccc2c(c1)CCN(C1CCC1)CC2)c1ccc2ccccc2n1.O=C(O)C(F)(F)F [Example 244, N-(3-Cyclobutyl-2,3,4,5-tetrahydro-1H-3-benzazepin-7-yl)-2-quinolinecarboxamide trifluoroacetate]
Cl.O=C(Nc1ccc2c(c1)CCN(C1CCC1)CC2)c1cnn(-c2ccccc2)c1C(F)(F)F [Example 272, N-(3-Cyclobutyl-2,3,4,5-tetrahydro-1H-3-benzazepin-7-yl)-1-phenyl-5-(trifluoromethyl)-1H-pyrazole-4-carboxamide hydrochloride]
O=C(Nc1ccc2c(c1)CCN(C1CCC1)CC2)c1ccc(-n2cnnn2)cc1 [Example 33, N-(3-Cyclobutyl-2,3,4,5-tetrahydro-1H-3-benzazepin-7-yl)-4-(1H-tetrazol-1-yl)benzamide]
Cn1cc(C(=O)Nc2ccc3c(c2)CCN(C2CCC2)CC3)cn1.O=C(O)C(F)(F)F [Example 215, N-(3-Cyclobutyl-2,3,4,5-tetrahydro-1H-3-benzazepin-7-yl)-1-methyl-1H-pyrazole-4-carboxamide trifluoroacetate]
Cc1noc(C)c1-c1ccc(C(=O)Nc2ccc3c(c2)CCN(C2CCC2)CC3)cc1 [Example 15, N-(3-Cyclobutyl-2,3,4,5-tetrahydro-1H-3-benzazepin-7-yl)-4-(3,5-dimethyl-4-isoxazolyl)benzamide]
O=C1CCCN1c1ccc(Nc2ccc3c(c2)CCN(C2CCC2)CC3)nc1 [Example 176, 1-{6-[(3-Cyclobutyl-2,3,4,5-tetrahydro-1H-3-benzazepin-7-yl)amino]-3-pyridinyl}-2-pyrrolidinone]
O=C(Nc1ccc2c(c1)CCN(C1CCC1)CC2)C1Cc2ccccc21 (stereo not shown) [Example 24, N-(3-Cyclobutyl-2,3,4,5-tetrahydro-1H-3-benzazepin-7-yl)bicyclo[4.2.0]octa-1,3,5-triene-7-carboxamide]
Cc1nn(-c2ccccc2)nc1C(=O)Nc1ccc2c(c1)CCN(C1CCC1)CC2 [Example 69, N-(3-Cyclobutyl-2,3,4,5-tetrahydro-1H-3-benzazepin-7-yl)-5-methyl-2-phenyl-2H-1,2,3-triazole-4-carboxamide]
COc1cccc(/C=C/C(=O)Nc2ccc3c(c2)CCN(C2CCC2)CC3)c1.O=C(O)C(F)(F)F [Example 257, (2E)-N-(3-Cyclobutyl-2,3,4,5-tetrahydro-1H-3-benzazepin-7-yl)-3-[3-(methyloxy)phenyl]-2-propenamide trifluoroacetate]
COc1ccc(OC2CCN(C(=O)Nc3ccc4c(c3)CCN(C3CCC3)CC4)CC2)cc1 [Example 167, N-(3-Cyclobutyl-2,3,4,5-tetrahydro-1H-3-benzazepin-7-yl)-4-{[4-(methyloxy)phenyl]oxy}-1-piperidinecarboxamide]
Cc1ccc(C(=O)Nc2ccc3c(c2)CCN(C2CCC2)CC3)cn1 [Example 37, N-(3-Cyclobutyl-2,3,4,5-tetrahydro-1H-3-benzazepin-7-yl)-6-methylnicotinamide]
O=C(Nc1ccc2c(c1)CCN(C1CCC1)CC2)c1cnccn1 [Example 59, N-(3-Cyclobutyl-2,3,4,5-tetrahydro-1H-3-benzazepin-7-yl)-2-pyrazinecarboxamide]
O=C(Nc1ccc2c(c1)CCN(C1CCC1)CC2)c1cc2ccccc2cn1.O=C(O)C(F)(F)F [Example 239, N-(3-Cyclobutyl-2,3,4,5-tetrahydro-1H-3-benzazepin-7-yl)-3-isoquinolinecarboxamide trifluoroacetate]
Cc1ccc(Cn2nc(C(=O)Nc3ccc4c(c3)CCN(C3CCC3)CC4)cc2C)cc1.O=C(O)C(F)(F)F [Example 202, N-(3-Cyclobutyl-2,3,4,5-tetrahydro-1H-3-benzazepin-7-yl)-5-methyl-1-[(4-methylphenyl)methyl]-1H-pyrazole-3-carboxamide trifluoroacetate]
O=C(Nc1ccc2c(c1)CCN(C1CCC1)CC2)c1ccc(-c2ccccc2)cc1 [Example 119, N-(3-Cyclobutyl-2,3,4,5-tetrahydro-1H-3-benzazepin-7-yl)-4-biphenylcarboxamide]
COc1cccc(C)c1NC(=O)Nc1ccc2c(c1)CCN(C1CCC1)CC2 [Example 141, N-(3-Cyclobutyl-2,3,4,5-tetrahydro-1H-3-benzazepin-7-yl)-N′-[2-methyl-6-(methyloxy)phenyl]urea]
CCCc1c(C(=O)Nc2ccc3c(c2)CCN(C2CCC2)CC3)cnn1-c1ccc(Cl)cc1.O=C(O)C(F)(F)F [Example 219, 1-(4-Chlorophenyl)-N-(3-cyclobutyl-2,3,4,5-tetrahydro-1H-3-benzazepin-7-yl)-5-propyl-1H-pyrazole-4-carboxamide trifluoroacetate]
O=C(Nc1ccc2c(c1)CCN(C1CCC1)CC2)c1cnc2ccccc2n1.O=C(O)C(F)(F)F [Example 179, N-(3-Cyclobutyl-2,3,4,5-tetrahydro-1H-3-benzazepin-7-yl)-2-quinoxalinecarboxamide trifluoroacetate]
N#Cc1ccc(OC2CCN(C(=O)Nc3ccc4c(c3)CCN(C3CCC3)CC4)CC2)cc1 [Example 152, 4-[(4-Cyanophenyl)oxy]-N-(3-cyclobutyl-2,3,4,5-tetrahydro-1H-3-benzazepin-7-yl)-1-piperidinecarboxamide]
O=C(Nc1ccc2c(c1)CCN(C1CCC1)CC2)N1CCc2cc(Cl)ccc21 [Example 146, 5-Chloro-N-(3-cyclobutyl-2,3,4,5-tetrahydro-1H-3-benzazepin-7-yl)indoline-1-carboxamide]
COc1ccccc1C(=O)Nc1ccc2c(c1)CCN(C1CCC1)CC2.O=C(O)C(F)(F)F [Example 180, N-(3-Cyclobutyl-2,3,4,5-tetrahydro-1H-3-benzazepin-7-yl)-2-(methyloxy)benzamide trifluoroacetate]
O=C(Nc1ccc2c(c1)CCN(C1CCC1)CC2)c1nc2ccccc2[nH]1.O=C(O)C(F)(F)F [Example 255, N-(3-Cyclobutyl-2,3,4,5-tetrahydro-1H-3-benzazepin-7-yl)-1H-benzimidazole-2-carboxamide trifluoroacetate]
O=C(Nc1ccc2c(c1)CCN(C1CCC1)CC2)N1CCc2ccccc21 [Example 147, N-(3-Cyclobutyl-2,3,4,5-tetrahydro-1H-3-benzazepin-7-yl)-2,3-dihydro-1H-indole-1-carboxamide]
O=C(Nc1ccc2c(c1)CCN(C1CCC1)CC2)c1ccc(-n2cncn2)nc1 [Example 77, N-(3-Cyclobutyl-2,3,4,5-tetrahydro-1H-3-benzazepin-7-yl)-6-(1H-1,2,4-triazol-1-yl)-3-pyridinecarboxamide]
Cl.O=C(Nc1ccc2c(c1)CCN(C1CCC1)CC2)c1cnn(-c2ccccc2)c1-n1cccc1 [Example 270, N-(3-Cyclobutyl-2,3,4,5-tetrahydro-1H-3-benzazepin-7-yl)-1-phenyl-5-(1H-pyrrol-1-yl)-1H-pyrazole-4-carboxamide hydrochloride]
Cc1cccnc1C(=O)Nc1ccc2c(c1)CCN(C1CCC1)CC2 [Example 61, N-(3-Cyclobutyl-2,3,4,5-tetrahydro-1H-3-3-benzazepin-7-yl)-3-methyl-2-pyridinecarboxamide]
CCn1nc(C)cc1C(=O)Nc1ccc2c(c1)CCN(C1CCC1)CC2.O=C(O)C(F)(F)F [Example 263, N-(3-Cyclobutyl-2,3,4,5-tetrahydro-1H-3-benzazepin-7-yl)-1-ethyl-3-methyl-1H-pyrazole-5-carboxamide trifluoroacetate]
